Data as given in publication PMC11762487.
These are yes or no findings as the source states them, for the method shown. Binding seen in cells or lysates may run through a third protein. Here binding means that the protein was enriched with, or labelled near, the bait; the list need not be complete.

The chains behind the UniProt entries cited, without tags or fusion partners.
UniProt Q9UKB1: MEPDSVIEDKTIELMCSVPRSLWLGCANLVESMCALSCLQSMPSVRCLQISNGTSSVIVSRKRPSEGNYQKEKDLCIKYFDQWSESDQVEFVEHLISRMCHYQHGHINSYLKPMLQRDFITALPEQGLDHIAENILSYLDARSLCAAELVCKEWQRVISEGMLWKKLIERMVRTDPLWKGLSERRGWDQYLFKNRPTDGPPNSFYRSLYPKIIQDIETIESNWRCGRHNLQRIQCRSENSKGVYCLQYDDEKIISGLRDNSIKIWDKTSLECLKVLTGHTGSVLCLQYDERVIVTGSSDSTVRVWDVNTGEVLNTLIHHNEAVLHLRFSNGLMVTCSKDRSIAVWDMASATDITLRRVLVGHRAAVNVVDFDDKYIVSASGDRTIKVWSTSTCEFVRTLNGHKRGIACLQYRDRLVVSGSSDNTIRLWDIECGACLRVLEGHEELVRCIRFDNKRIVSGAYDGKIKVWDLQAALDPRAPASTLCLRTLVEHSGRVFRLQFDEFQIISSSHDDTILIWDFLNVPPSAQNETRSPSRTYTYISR

Molecular target: T1, Splicing factor proline- and glutamine-rich (SFPQ) (human (endogenous in HEK293T)) (UniProt P23246)
T1 sequence: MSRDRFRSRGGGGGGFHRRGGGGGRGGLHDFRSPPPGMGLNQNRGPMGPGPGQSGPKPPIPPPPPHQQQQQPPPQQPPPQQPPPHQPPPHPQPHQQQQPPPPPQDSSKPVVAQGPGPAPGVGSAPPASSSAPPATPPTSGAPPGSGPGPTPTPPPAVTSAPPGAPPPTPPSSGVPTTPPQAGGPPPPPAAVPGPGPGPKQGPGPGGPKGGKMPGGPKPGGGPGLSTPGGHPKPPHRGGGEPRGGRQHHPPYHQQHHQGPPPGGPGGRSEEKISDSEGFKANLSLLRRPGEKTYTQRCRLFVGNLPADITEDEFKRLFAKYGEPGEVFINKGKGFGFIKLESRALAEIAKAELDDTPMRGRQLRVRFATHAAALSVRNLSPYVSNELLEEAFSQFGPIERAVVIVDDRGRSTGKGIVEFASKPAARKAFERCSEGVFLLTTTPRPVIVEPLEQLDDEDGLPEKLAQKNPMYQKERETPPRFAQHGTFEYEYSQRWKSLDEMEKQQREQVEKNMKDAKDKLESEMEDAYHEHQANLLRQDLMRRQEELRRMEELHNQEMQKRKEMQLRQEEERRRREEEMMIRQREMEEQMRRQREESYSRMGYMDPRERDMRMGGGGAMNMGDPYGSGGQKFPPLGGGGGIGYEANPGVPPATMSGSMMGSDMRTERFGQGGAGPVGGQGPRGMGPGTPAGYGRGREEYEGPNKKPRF
Test: affinity purification with mass spectrometry; co-IP in HEK293T cells using an SFPQ antibody; protein samples silver stained and analysed by MS

F-box and WD repeat domain containing 11 (FBXW11) (from UniProt Q9UKB1 1-542)
binding: binds
